The source of these data is patent US20090158448A1 (NATIONAL UNIVERSITY CORPORATION TOKYO MEDICAL AND DENTAL …, published 2009).

The target in assay [1] is T1, wild type human Dok-7 protein (human) (UniProt Q18PE1).
T1 sequence: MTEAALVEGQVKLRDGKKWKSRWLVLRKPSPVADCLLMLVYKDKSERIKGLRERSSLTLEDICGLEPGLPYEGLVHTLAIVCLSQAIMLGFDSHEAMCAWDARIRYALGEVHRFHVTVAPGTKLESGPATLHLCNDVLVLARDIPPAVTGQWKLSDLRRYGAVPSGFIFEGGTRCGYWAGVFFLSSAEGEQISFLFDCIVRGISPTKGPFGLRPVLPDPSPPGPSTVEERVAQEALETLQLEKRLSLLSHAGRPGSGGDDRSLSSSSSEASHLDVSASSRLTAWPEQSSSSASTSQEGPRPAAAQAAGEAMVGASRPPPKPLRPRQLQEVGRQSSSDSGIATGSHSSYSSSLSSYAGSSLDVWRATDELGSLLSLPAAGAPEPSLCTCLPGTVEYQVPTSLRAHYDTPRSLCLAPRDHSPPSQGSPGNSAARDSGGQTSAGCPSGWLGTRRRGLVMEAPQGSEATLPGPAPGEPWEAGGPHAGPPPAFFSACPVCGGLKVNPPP
The experiment in a line: co-immunoprecipitation (anti-myc) and western, 293T cell lysate.

The target of assay [2] is T2, wild type (WT) mouse MuSK fused to myc tag (mouse) (UniProt Q61006).
T2 sequence: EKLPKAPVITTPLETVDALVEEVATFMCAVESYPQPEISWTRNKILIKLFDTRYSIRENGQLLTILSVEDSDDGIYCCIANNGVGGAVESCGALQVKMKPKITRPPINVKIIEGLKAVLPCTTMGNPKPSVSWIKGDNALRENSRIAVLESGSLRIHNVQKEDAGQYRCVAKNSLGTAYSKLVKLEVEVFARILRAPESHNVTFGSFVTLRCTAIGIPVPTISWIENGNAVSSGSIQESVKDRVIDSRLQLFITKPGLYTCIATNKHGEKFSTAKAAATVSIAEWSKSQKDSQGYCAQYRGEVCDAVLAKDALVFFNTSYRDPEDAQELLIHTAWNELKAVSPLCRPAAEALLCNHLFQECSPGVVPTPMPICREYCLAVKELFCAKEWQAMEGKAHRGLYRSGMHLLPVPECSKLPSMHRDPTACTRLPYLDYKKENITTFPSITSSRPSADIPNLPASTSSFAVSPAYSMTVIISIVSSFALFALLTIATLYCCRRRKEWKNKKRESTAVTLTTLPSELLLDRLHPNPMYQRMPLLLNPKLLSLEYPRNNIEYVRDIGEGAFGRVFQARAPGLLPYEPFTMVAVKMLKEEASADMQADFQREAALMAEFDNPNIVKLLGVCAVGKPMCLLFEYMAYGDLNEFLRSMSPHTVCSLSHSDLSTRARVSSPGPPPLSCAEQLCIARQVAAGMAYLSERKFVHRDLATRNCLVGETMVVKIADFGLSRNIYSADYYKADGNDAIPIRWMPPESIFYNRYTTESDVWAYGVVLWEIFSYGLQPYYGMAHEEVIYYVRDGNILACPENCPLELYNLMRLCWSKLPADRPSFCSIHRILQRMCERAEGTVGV
The description is as above.

These are yes or no findings as the source states them, for the method shown. In cells and extracts the contact can be indirect. Some binding calls cover weakened binding; strength is not graded here. Tags and fused reporters may be left off the sequences shown.

B1: wild type (WT) mouse MuSK fused to myc tag (receptor, not shown: small tags and cut ends)
chain: EKLPKAPVITTPLETVDALVEEVATFMCAVESYPQPEISWTRNKILIKLFDTRYSIRENGQLLTILSVEDSDDGIYCCIANNGVGGAVESCGALQVKMKPKITRPPINVKIIEGLKAVLPCTTMGNPKPSVSWIKGDNALRENSRIAVLESGSLRIHNVQKEDAGQYRCVAKNSLGTAYSKLVKLEVEVFARILRAPESHNVTFGSFVTLRCTAIGIPVPTISWIENGNAVSSGSIQESVKDRVIDSRLQLFITKPGLYTCIATNKHGEKFSTAKAAATVSIAEWSKSQKDSQGYCAQYRGEVCDAVLAKDALVFFNTSYRDPEDAQELLIHTAWNELKAVSPLCRPAAEALLCNHLFQECSPGVVPTPMPICREYCLAVKELFCAKEWQAMEGKAHRGLYRSGMHLLPVPECSKLPSMHRDPTACTRLPYLDYKKENITTFPSITSSRPSADIPNLPASTSSFAVSPAYSMTVIISIVSSFALFALLTIATLYCCRRRKEWKNKKRESTAVTLTTLPSELLLDRLHPNPMYQRMPLLLNPKLLSLEYPRNNIEYVRDIGEGAFGRVFQARAPGLLPYEPFTMVAVKMLKEEASADMQADFQREAALMAEFDNPNIVKLLGVCAVGKPMCLLFEYMAYGDLNEFLRSMSPHTVCSLSHSDLSTRARVSSPGPPPLSCAEQLCIARQVAAGMAYLSERKFVHRDLATRNCLVGETMVVKIADFGLSRNIYSADYYKADGNDAIPIRWMPPESIFYNRYTTESDVWAYGVVLWEIFSYGLQPYYGMAHEEVIYYVRDGNILACPENCPLELYNLMRLCWSKLPADRPSFCSIHRILQRMCERAEGTVGV
B1: the binding result in assay [1] was “binds”.

B2: wild type human Dok-7 protein (other)
chain: MTEAALVEGQVKLRDGKKWKSRWLVLRKPSPVADCLLMLVYKDKSERIKGLRERSSLTLEDICGLEPGLPYEGLVHTLAIVCLSQAIMLGFDSHEAMCAWDARIRYALGEVHRFHVTVAPGTKLESGPATLHLCNDVLVLARDIPPAVTGQWKLSDLRRYGAVPSGFIFEGGTRCGYWAGVFFLSSAEGEQISFLFDCIVRGISPTKGPFGLRPVLPDPSPPGPSTVEERVAQEALETLQLEKRLSLLSHAGRPGSGGDDRSLSSSSSEASHLDVSASSRLTAWPEQSSSSASTSQEGPRPAAAQAAGEAMVGASRPPPKPLRPRQLQEVGRQSSSDSGIATGSHSSYSSSLSSYAGSSLDVWRATDELGSLLSLPAAGAPEPSLCTCLPGTVEYQVPTSLRAHYDTPRSLCLAPRDHSPPSQGSPGNSAARDSGGQTSAGCPSGWLGTRRRGLVMEAPQGSEATLPGPAPGEPWEAGGPHAGPPPAFFSACPVCGGLKVNPPP
notes: also called WT; polypeptide of the present invention
With B2, in assay [2], the binding result is recorded as “binds”.
